At least one structure is not confirmed: it was looked up by name or label, or the drawing left a doubt.
System: human breast tumor cells
Assay: Differentiating agent inhibition of cell proliferation (Example 7)

SMILES: CC1=C(/C=C/C(C)=C/C=C/C(C)=C/C(=O)O)C(C)(C)CCC1 [retinoic acid]
- inhibition of cell proliferation (cell number relative to control) (0.1 to 1.0 mM, six doses, 24 h exposure, then 72 h incubation, four breast tumor specimens): three of the four breast specimens tested showed an inhibition of cell proliferation
- concentration range in which the responses occurred (range tested 0.1 to 1.0 mM): mid-to-high
